Assay results reported in doi:10.1101/2024.05.28.596271.
No constants are given. Whether binding was seen depends on the method and setting. For some of these results: Binding seen in cells or lysates may run through a third protein. Some entries that bind do so weakly or less than the wild type.

By UniProt entry, the sequences of proteins in these tests, tags left out. Where a name states a change or a piece, a line headed by the entry shows the natural chain unless it says otherwise. Chains listed by the source or under a name are the forms on record and can include a tag or linker. Residues count along the entry.
UniProt P05106, residues 742-788: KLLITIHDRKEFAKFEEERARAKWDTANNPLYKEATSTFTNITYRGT
UniProt P05107: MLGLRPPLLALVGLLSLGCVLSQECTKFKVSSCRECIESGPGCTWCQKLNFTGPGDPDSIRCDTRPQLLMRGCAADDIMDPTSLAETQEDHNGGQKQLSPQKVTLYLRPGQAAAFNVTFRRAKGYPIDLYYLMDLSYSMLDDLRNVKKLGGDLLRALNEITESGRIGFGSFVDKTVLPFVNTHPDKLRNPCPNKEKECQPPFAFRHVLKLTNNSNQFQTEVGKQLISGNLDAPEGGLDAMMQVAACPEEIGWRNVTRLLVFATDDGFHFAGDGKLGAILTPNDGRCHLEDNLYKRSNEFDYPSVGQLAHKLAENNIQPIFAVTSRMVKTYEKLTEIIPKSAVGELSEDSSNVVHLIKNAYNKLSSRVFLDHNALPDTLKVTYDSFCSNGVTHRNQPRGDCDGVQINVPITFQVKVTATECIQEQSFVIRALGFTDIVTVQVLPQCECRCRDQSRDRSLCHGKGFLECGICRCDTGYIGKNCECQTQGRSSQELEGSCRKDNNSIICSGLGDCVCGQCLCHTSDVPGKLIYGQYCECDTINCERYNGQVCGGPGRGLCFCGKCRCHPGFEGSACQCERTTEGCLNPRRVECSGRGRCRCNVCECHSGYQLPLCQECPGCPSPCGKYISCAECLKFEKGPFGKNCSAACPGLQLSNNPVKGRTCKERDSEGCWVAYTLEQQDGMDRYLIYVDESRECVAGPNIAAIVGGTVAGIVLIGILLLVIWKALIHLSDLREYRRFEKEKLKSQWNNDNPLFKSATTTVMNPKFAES
UniProt Q96AC1: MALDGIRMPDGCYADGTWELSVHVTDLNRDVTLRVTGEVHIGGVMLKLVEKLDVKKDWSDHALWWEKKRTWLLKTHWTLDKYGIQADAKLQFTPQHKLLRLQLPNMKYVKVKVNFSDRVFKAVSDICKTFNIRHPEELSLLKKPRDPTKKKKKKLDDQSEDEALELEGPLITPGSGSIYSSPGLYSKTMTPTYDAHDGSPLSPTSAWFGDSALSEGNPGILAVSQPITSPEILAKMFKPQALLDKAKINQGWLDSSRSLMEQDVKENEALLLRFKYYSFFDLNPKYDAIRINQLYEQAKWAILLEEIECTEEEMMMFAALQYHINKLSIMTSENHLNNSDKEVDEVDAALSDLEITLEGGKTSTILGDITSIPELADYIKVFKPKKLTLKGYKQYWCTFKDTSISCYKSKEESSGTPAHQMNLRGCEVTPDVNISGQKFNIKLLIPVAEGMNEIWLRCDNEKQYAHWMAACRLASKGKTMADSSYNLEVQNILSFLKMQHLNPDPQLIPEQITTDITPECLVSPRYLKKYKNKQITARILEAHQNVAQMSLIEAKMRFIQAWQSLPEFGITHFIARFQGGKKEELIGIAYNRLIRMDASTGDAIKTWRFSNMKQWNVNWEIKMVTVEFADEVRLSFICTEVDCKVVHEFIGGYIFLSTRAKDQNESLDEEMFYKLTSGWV
talin head domain (1-430, F1 loop deleted) K306Q of β2-THD(K306Q) (P26039, form named): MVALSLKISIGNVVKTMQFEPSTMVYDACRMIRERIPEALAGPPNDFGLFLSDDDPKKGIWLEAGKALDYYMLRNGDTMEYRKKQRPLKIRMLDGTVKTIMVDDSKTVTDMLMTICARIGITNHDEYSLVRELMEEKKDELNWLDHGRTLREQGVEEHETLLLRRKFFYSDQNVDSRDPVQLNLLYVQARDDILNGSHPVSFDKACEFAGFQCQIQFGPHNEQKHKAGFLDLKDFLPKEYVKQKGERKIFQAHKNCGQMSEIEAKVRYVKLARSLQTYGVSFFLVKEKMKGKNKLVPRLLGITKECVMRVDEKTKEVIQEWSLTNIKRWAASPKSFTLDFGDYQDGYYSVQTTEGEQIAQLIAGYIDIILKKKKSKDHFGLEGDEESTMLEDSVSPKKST
talin head domain (1-430, F1 loop deleted) K306Q/E269A/Y270A of β2-THD(QAA) (P26039, form named): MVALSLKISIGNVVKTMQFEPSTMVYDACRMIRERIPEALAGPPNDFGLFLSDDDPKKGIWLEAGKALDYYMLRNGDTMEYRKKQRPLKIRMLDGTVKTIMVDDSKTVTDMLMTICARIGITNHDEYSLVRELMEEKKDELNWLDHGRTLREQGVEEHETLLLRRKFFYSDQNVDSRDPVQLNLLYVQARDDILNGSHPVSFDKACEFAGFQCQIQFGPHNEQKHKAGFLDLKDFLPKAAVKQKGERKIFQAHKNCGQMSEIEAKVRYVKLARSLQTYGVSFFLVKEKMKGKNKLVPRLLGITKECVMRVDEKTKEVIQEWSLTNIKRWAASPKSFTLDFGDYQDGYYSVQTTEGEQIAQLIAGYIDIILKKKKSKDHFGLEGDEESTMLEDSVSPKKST
talin head protein THD405d (residues 1-405, lacking F1-loop) (P26039, form named): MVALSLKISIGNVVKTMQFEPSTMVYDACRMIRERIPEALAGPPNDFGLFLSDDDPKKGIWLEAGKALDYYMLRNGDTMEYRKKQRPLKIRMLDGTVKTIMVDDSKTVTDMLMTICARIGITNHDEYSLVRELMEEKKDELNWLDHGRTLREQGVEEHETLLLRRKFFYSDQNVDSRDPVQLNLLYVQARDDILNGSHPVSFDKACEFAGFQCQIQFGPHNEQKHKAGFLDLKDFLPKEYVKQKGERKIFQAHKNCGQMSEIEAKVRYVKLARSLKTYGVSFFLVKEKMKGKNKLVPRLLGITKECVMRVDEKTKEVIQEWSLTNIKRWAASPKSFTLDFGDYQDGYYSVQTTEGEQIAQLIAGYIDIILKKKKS

Experiments:
[1] = target: GST-β3 (residue 742-788) (human) (UniProt P05106); assay: pull-down
[2] = target: truncated cytoplasmic tail of human integrin β2 (residues 748-757), talin-binding NPxY/F region (human) (UniProt P05107); assay: crystal structure

Substance: kindlin-2 (from UniProt Q96AC1 1-680)
- binding [1]: binds

Substance: talin head domain (1-430, F1 loop deleted) K306Q of β2-THD(K306Q) (from UniProt P26039 1-430) (domain or fragment)
- binding [2]: binds

Substance: talin head domain (1-430, F1 loop deleted) K306Q/E269A/Y270A of β2-THD(QAA) (from UniProt P26039 1-430) (domain or fragment)
- binding [2]: binds

Substance: talin head protein THD405d (residues 1-405, lacking F1-loop) (from UniProt P26039 1-405) (domain or fragment)
- binding [1]: binds
